Source: article PMC7990499, “eIF2B conformation and assembly state regulate the integrated stress response” (eLife, 2021)
These are yes or no findings as the source states them, for the method shown. Some binding calls cover weakened binding; strength is not graded here.

Target: eIF2Bα homodimer (eIF2Bα2) (human) (UniProt Q14232)
Assay: cryo-EM structure; apo eIF2B decamer from 20 μM eIF2Bβγδε and 11 μM eIF2Bα2 in 20 mM HEPES-KOH, 200 mM KCl, 5 mM MgCl2, 1 mM TCEP, diluted to 750 nM; both purified

- binding: binds
B1: eIF2Bα homodimer (eIF2Bα2) (protein, UniProt Q14232 1-305)
chain: MDDKELIEYFKSQMKEDPDMASAVAAIRTLLEFLKRDKGETIQGLRANLTSAIETLCGVDSSVAVSSGGELFLRFISLASLEYSDYSKCKKIMIERGELFLRRISLSRNKIADLCHTFIKDGATILTHAYSRVVLRVLEAAVAAKKRFSVYVTESQPDLSGKKMAKALCHLNVPVTVVLDAAVGYIMEKADLVIVGAEGVVENGGIINKIGTNQMAVCAKAQNKPFYVVAESFKFVRLFPLNQQDVPDKFKYKADTLKVAQTGQDLKEEHPWVDYTAPSLITLLFTDLGVLTPSAVSDELIKLYL
